Measured data: PubChem BioAssay AID652259 (Drosophila RNAi Screening Center, 2013)
The screen tested about 22,000 reagents; below is a random part of those that have a named target and a result. Over the whole deposit, 233 (1.1%) got an active call. 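Light values are raw, unnormalised plate reads; the ratio scores behind the reporter calls were not deposited.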 Entries without a mark were called inactive. Names joined by + are all predicted targets of the reagent. Not stated in the record: the amount of reagent, the time to read-out, the dose of the treatment.

Screen: 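Genome-wide hunt for genes that control Wingless pathway activity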 (primary screen)
Cell system: Drosophila clone 8 imaginal disc epithelial cells
Reagent: long dsRNA against Drosophila genes
Challenge: pathway stimulated by co-transfected Wingless expression plasmid
Read-out: 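Firefly luciferase from a tcf-site Wingless reporter, measured alongside co-transfected Renilla luciferase that tracks transfection; pathway stimulated by a Wingless plasmid; the firefly-to-Renilla ratio is not deposited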
Direction: firefly reporter light: higher = more Wg reporter light, before normalisation; Renilla control light: higher = more transfected or surviving cells
Call rule: 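Strong candidates differ from their plate mean by at least two out of four per-plate statistical tests; weak candidates meet just one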
Meaning of the calls: active = candidate regulator (raises or lowers reporter); inactive = not a candidate

The first 2 entries as a preview:
Rox8 [DRSC16829] → firefly reporter light, replicate 1: 14229; Renilla control light, replicate 1: 11289
fzo [DRSC16954] → firefly reporter light, replicate 1: 10711; Renilla control light, replicate 1: 11593

The list itself, from the start:
Rox8 [DRSC16829] → firefly reporter light, replicate 1: 14229; Renilla control light, replicate 1: 11289
fzo [DRSC16954] → firefly reporter light, replicate 1: 10711; Renilla control light, replicate 1: 11593
CG13055 [DRSC09936] → firefly reporter light, replicate 1: 7495; Renilla control light, replicate 1: 3590
CG6163 [DRSC10595] → firefly reporter light, replicate 1: 7958; Renilla control light, replicate 1: 3136
sut3 [DRSC07702] → firefly reporter light, replicate 1: 4152; firefly reporter light, replicate 2: 7321; Renilla control light, replicate 1: 1111; Renilla control light, replicate 2: 2464
gkt + CR31953 [DRSC00709] → firefly reporter light, replicate 1: 8181; Renilla control light, replicate 1: 3920
Irbp18 [DRSC10612] → firefly reporter light, replicate 1: 9802; Renilla control light, replicate 1: 3778
Sytbeta [DRSC10009] → firefly reporter light, replicate 1: 7880; Renilla control light, replicate 1: 3892
Sytbeta [DRSC10351] → firefly reporter light, replicate 1: 4240; Renilla control light, replicate 1: 2216
TTLL6B [DRSC15932] → firefly reporter light, replicate 1: 9843; Renilla control light, replicate 1: 3824
CG18294 + 825-Oak + CG32214 + 2 more [DRSC22210] → firefly reporter light, replicate 1: 7.08e5; firefly reporter light, replicate 2: 6.94e5; Renilla control light, replicate 1: 3.02e5; Renilla control light, replicate 2: 3.27e5
Nepl12 [DRSC16411] → firefly reporter light, replicate 1: 14800; Renilla control light, replicate 1: 3974
egg [DRSC04119] → firefly reporter light, replicate 1: 17232; Renilla control light, replicate 1: 4325
egg [DRSC22534] → firefly reporter light, replicate 1: 1.08e6; firefly reporter light, replicate 2: 1.11e6; Renilla control light, replicate 1: 6.06e5; Renilla control light, replicate 2: 1.80e5
Npc1b [DRSC20488] → firefly reporter light, replicate 1: 15523; Renilla control light, replicate 1: 8615
Best2 [DRSC09712] → firefly reporter light, replicate 1: 1954; firefly reporter light, replicate 2: 7613; Renilla control light, replicate 1: 853; Renilla control light, replicate 2: 3236
CG14453 [DRSC11710] → firefly reporter light, replicate 1: 20077; firefly reporter light, replicate 2: 6.77e5; Renilla control light, replicate 1: 6932; Renilla control light, replicate 2: 3.37e5
